Results published in publication PMC7275062.
These are yes or no findings as the source states them, for the method shown. In cells and extracts the contact can be indirect. Some entries that bind do so weakly or less than the wild type. Sequences can lack the tags named with a protein.

How the values were obtained:
[1] = target: T1, Plasmodesmata-located protein 1 (PDLP1), half-YFP fusion (Arabidopsis thaliana) (UniProt Q8GXV7); assay: split reporter; split YFP-based BiFC; Yn and Yc fusions co-expressed in N. benthamiana leaves by agroinfiltration (1:1 mixture); imaged 29-31 hpa; YFP signal at plasmodesmata marked by callose staining
T1 sequence: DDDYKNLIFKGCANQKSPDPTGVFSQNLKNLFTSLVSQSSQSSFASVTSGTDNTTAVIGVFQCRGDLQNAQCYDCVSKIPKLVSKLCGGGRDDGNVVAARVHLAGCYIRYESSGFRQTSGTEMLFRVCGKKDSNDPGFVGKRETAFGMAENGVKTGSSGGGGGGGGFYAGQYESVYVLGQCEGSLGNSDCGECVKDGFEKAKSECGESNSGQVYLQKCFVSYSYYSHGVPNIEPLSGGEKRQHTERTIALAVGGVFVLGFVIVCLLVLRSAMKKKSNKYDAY

[2] = target: T2, Plasmodesmata-located protein 5 (PDLP5), half-YFP fusion (Arabidopsis thaliana) (UniProt Q8GUJ2); assay: as above
T2 sequence: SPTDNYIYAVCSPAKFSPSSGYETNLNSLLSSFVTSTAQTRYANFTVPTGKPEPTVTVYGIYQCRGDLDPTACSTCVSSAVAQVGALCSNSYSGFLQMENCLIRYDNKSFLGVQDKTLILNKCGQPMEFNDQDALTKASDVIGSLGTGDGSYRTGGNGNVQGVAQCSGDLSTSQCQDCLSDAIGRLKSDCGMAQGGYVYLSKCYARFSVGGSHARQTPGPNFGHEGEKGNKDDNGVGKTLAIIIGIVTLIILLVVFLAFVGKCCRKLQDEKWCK

[3] = target: PDLP5^VV, half-YFP fusion (Arabidopsis thaliana) (UniProt Q8GUJ2); assay: as above
[4] = target: T3, Plasmodesmata-located protein 4 (PDLP4), half-YFP fusion (Arabidopsis thaliana) (UniProt Q6E263); assay: as above
T3 sequence: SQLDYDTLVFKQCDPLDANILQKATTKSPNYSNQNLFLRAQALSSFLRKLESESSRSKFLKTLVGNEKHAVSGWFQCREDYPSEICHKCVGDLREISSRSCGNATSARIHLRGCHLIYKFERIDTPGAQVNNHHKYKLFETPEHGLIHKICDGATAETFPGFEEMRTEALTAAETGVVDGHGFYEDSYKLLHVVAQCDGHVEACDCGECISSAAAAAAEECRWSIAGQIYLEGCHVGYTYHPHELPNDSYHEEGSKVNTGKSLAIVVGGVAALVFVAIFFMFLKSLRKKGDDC

[5] = target: T4, Plasmodesmata-located protein 4 (PDLP4), EGFP or mCherry fusion (Arabidopsis thaliana) (UniProt Q6E263); assay: FRET or BRET; acceptor photobleaching FRET; EGFP (donor) and mCherry (acceptor) fusions co-expressed in N. benthamiana leaf epidermal cells; mCherry bleached with the 561-nm line at 100% for 10 s in ROIs at plasmodesmata (whole nuclei for free EGFP/mCherry)
T4 sequence: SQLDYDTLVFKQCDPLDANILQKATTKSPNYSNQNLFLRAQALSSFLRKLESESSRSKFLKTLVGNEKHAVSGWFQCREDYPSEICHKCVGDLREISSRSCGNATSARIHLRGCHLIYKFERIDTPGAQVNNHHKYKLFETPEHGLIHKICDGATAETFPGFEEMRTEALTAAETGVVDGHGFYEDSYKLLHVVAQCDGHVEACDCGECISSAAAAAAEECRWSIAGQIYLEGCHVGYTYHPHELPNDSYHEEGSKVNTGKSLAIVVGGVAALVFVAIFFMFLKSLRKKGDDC

[6] = target: T5, Plasmodesmata-located protein 5 (PDLP5), EGFP or mCherry fusion (Arabidopsis thaliana) (UniProt Q8GUJ2); assay: as above
T5 sequence: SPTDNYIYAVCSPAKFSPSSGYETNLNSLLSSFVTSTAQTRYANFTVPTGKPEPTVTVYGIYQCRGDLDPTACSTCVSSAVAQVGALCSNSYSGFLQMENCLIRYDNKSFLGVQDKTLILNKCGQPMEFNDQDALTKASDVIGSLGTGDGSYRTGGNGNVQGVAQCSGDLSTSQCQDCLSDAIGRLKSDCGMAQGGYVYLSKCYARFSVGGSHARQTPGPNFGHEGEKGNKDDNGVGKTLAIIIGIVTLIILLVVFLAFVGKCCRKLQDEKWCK

[7] = target: PDLP5^VV, EGFP or mCherry fusion (Arabidopsis thaliana) (UniProt Q8GUJ2); assay: as above
[8] = target: T6, Plasmodesmata-located protein 1 (PDLP1), EGFP or mCherry fusion (Arabidopsis thaliana) (UniProt Q8GXV7); assay: as above
T6 sequence: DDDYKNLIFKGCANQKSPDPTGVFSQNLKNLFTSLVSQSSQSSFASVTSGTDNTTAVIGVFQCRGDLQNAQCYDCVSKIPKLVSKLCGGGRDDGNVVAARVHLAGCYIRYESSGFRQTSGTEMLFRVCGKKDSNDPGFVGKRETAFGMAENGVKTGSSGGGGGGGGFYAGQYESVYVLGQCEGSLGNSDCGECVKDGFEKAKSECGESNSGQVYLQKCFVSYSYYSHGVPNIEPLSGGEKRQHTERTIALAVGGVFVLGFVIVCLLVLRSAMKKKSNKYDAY

Measured: binding

B1: PDLP5^VV, half-YFP fusion (protein, UniProt Q8GUJ2 26-299)
chain: SPTDNYIYAVCSPAKFSPSSGYETNLNSLLSSFVTSTAQTRYANFTVPTGKPEPTVTVYGIYQCRGDLDPTACSTCVSSAVAQVGALCSNSYSGFLQMENCLIRYDNKSFLGVQDKTLILNKCGQPMEFNDQDALTKASDVIGSLGTGDGSYRTGGNGNVQGVAQCSGDLSTSQCQDCLSDAIGRLKSDCGMAQGGYVYLSKCYARFSVGGSHARQTPGPNFGHEGEKGNKDDNGVGKTLVIIIVIVTLIILLVVFLAFVGKCCRKLQDEKWCK
binds: [1] | [2] | [3] | [4]

B2: Plasmodesmata-located protein 5 (PDLP5), half-YFP fusion (protein, UniProt Q8GUJ2 26-299)
chain: SPTDNYIYAVCSPAKFSPSSGYETNLNSLLSSFVTSTAQTRYANFTVPTGKPEPTVTVYGIYQCRGDLDPTACSTCVSSAVAQVGALCSNSYSGFLQMENCLIRYDNKSFLGVQDKTLILNKCGQPMEFNDQDALTKASDVIGSLGTGDGSYRTGGNGNVQGVAQCSGDLSTSQCQDCLSDAIGRLKSDCGMAQGGYVYLSKCYARFSVGGSHARQTPGPNFGHEGEKGNKDDNGVGKTLAIIIGIVTLIILLVVFLAFVGKCCRKLQDEKWCK
binds: [1] | [2] | [4]

B3: PDLP5^VV, EGFP or mCherry fusion (protein, UniProt Q8GUJ2 26-299)
chain: SPTDNYIYAVCSPAKFSPSSGYETNLNSLLSSFVTSTAQTRYANFTVPTGKPEPTVTVYGIYQCRGDLDPTACSTCVSSAVAQVGALCSNSYSGFLQMENCLIRYDNKSFLGVQDKTLILNKCGQPMEFNDQDALTKASDVIGSLGTGDGSYRTGGNGNVQGVAQCSGDLSTSQCQDCLSDAIGRLKSDCGMAQGGYVYLSKCYARFSVGGSHARQTPGPNFGHEGEKGNKDDNGVGKTLVIIIVIVTLIILLVVFLAFVGKCCRKLQDEKWCK
binds: [5] | [6] | [7] | [8]

B4: Plasmodesmata-located protein 5 (PDLP5), EGFP or mCherry fusion (protein, UniProt Q8GUJ2 26-299)
chain: SPTDNYIYAVCSPAKFSPSSGYETNLNSLLSSFVTSTAQTRYANFTVPTGKPEPTVTVYGIYQCRGDLDPTACSTCVSSAVAQVGALCSNSYSGFLQMENCLIRYDNKSFLGVQDKTLILNKCGQPMEFNDQDALTKASDVIGSLGTGDGSYRTGGNGNVQGVAQCSGDLSTSQCQDCLSDAIGRLKSDCGMAQGGYVYLSKCYARFSVGGSHARQTPGPNFGHEGEKGNKDDNGVGKTLAIIIGIVTLIILLVVFLAFVGKCCRKLQDEKWCK
binds: [5] | [8]
